For assay [1], the target named is T1, chicken Fos (Fos-HA, from pCAG-Fos-HA) (chicken) (UniProt P11939).
T1 sequence: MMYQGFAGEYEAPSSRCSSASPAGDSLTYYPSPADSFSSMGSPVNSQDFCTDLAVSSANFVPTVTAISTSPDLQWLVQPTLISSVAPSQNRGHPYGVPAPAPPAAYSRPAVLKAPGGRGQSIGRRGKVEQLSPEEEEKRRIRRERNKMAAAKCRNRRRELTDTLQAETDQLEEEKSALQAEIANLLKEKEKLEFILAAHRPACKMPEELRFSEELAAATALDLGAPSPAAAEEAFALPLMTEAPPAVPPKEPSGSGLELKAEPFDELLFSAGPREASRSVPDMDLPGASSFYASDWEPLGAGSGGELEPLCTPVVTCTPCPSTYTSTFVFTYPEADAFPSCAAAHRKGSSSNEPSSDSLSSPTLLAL
The assay is described as follows: co-IP; LMH cells co-transfected with pCAG-Fos-HA and pCAGGS-p53-Flag; lysates with Protein A/G magnetic beads and anti-HA, anti-Flag or control IgG, 2 h at 4 °C; four washes with PBST; Western blot with HA or Flag antibody. On the technique in general: Immunoblotting shows a protein as a band on a membrane.

For assay [2], the target named is T2, chicken p53 (p53-Flag, from pCAG-p53-Flag) (chicken) (UniProt P10360).
T2 sequence: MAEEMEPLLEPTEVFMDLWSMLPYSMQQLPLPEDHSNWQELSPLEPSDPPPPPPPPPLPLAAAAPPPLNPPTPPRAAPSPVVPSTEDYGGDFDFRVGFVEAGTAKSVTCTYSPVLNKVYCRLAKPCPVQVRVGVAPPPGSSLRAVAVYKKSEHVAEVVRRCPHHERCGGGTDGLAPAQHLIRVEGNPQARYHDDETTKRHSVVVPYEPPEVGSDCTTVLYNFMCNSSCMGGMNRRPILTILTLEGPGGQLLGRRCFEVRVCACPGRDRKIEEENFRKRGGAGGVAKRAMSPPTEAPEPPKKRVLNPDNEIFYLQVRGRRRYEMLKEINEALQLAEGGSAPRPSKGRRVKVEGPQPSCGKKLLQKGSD
Described as above.

The values below come from PMC10454551.

Results are given in words; binding and its absence hold for the method and conditions named. Binding seen in cells or lysates may run through a third protein. Some binding calls cover weakened binding; strength is not graded here. Tags and fused reporters may be left off the sequences shown.

B1: chicken p53 (p53-Flag, from pCAG-p53-Flag) (protein, UniProt P10360 1-367)
chain: T2 sequence
With B1, the binding entry in assay [1] was “binds”.

B2: chicken Fos (Fos-HA, from pCAG-Fos-HA) (protein, UniProt P11939 1-367)
chain: T1 sequence
B2: in assay [2], the binding result is “binds”.
